Assay results from patent US10555936B2, “Chemotherapeutic compositions and methods for treating human gliomas” (The Methodist Hospital, priority 2011, dated 2020).
A number of entries come with more than one value. The list is limited to them. There may be further records. The values listed for one entry differ for a reason that is not stated; they may come from other doses, times, organisms or constructs than stated. Marks such as (2×) stand for listed records that agree.

Tested on: BT116 glioblastoma
Assay: Intracranial human glioblastoma model
Settings: MP-MUS-treated group, mice #1-11; Day 307 = final day, all remaining animals sacrificed
Description: Postglenoid Foramen Injection. […] Some five minutes after injection and recovery from the anesthetic, the majority of the mice were walking around and were phenotypically normal within an hour. In the main study 40 SCID immuno-deficient mice were injected via the postglenoid foramen with glioblastoma in Matrigel™:tissue culture medium, 4:6, to a final cell load of 2,500,000 cells per animal; according to Iwami et al., (2012). […] A number of the SCID mice died following the glioma injections or had deficits in the first few weeks following the initial injection. After >3 months, 24 animals were asymptomatic, and 22 animals were split into two groups; MP-MUS treated and Saline treated. The remaining pair was sacrificed and their brains were fixed/waxed and archived as pre-treatment controls.
Drug Therapy and Symptom Monitoring. On day 115 mice are then given either 200 μL saline or 200 μL of 1 mg/mL MP-MUS in saline, via tail-vein injection. The same treatment was repeated on days 122 and 129.
The mice were initially placed in groups of 2×4 and 1×3 animals and were individually every 1-3 days. The mice were assessed for the onset of neurological symptoms caused by an intracranial tumor throughout the study. Symptoms in the mice that require euthanasia were sudden weight loss; >2 grams in 7 days, deficits of movement that caused the animal to be unable to drink/feed and immobility. […]

## CC(C(=O)N(CCCl)CCCl)C1=CCN(C)CC1 (stereo not shown)
  SAC (day of sacrifice), individual mice: Day 307 (10×) and Day 225
